PubChem BioAssay AID1259424 | University of Nebraska Medical Center – 2018
In all, the deposit lists about 14,000 reagents; below is a random part of them. 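Higher correlation or smaller distance means closer resemblance to KSR1 loss; control wells, including KSR1 knockdowns, recur on many plates.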 A reagent listed more than once was tested more than once; the source does not tell the runs apart. Not given: the time to read-out.

- Aim: 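Find knockdowns that reproduce the expression shifts seen after KSR1 loss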 (primary screen)
- System: human HCT116 colon cancer cells
- Knock-down reagent: siRNA pool against human genes, 50 nM
- Measured: 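Log2 levels of six mRNAs (branched-DNA multiplex), adjusted by two reference genes and the non-targeting median, then scored against the average KSR1 knockdown pattern as Pearson r and euclidean distance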
- Reading the numbers: mean correlation with KSR1 profile and KSR1 correlation: higher = expression change more like KSR1 knockdown; mean distance from KSR1 profile: higher = expression change less like KSR1 knockdown

no.	gene	PubChem SID	mean correlation with KSR1 profile	mean distance from KSR1 profile	KSR1 correlation, replicate 1	KSR1 correlation, replicate 2	KSR1 correlation, replicate 3
1	ADAM33	SID364003324	-0.671	3.34	-0.498	-0.725	-0.658
2	VEGFA	SID363994488	0.506	1.02	0.561	0.3	0.519
3	APLP1	SID363996093	0.547	1.97	0.635	0.489	0.572
4	CWC22	SID364005077	-0.398	3.05	-0.335	-0.258	-0.318
5	MYCBPAP	SID364003790	0.881	2.78	0.855	0.862	0.874
6	FRAT2	SID363998033	0.168	1.38	0.141	-0.0904	0.0548
7	VPS45	SID363997948	0.572	1.63	0.53	0.747	0.0709
8	TJP2	SID363995770	-0.228	3.27	0.171	-0.417	-0.621
9	SMAD1	SID363996769	-0.358	3.5	-0.318	-0.451	-0.505
10	SMAD1	SID363996769	-0.0087	3.17	0.0944	-0.0523	-0.174
11	ZMYND10	SID363999700	0.417	1.6	0.222	0.358	0.628
12	FBLN1	SID363993208	0.0894	1.15	0.446	-0.146	-0.12
13	TPX2	SID363998060	-0.187	3.28	-0.31	-0.124	-0.0274
14	LIN7A	SID363995628	0.537	1.03	0.646	0.561	0.418
15	FICD	SID363997805	-0.534	1.92	-0.681	-0.785	-0.376
16	DGAT1	SID363998029	0.784	2.84	0.791	0.789	0.843
17	HOOK3	SID364003967	0.79	1.54	0.633	0.826	0.762
18	SERP1	SID363998860	0.32	1.88	0.257	0.149	-0.364
19	RPS20	SID363992321	-0.129	1.68	-0.258	-0.116	-0.0694
20	SCN8A	SID363998645	0.0302	1.62	-0.412	-0.217	0.352

Quoted from the entries so far for reference:
no.	gene	PubChem SID	mean correlation with KSR1 profile	mean distance from KSR1 profile	KSR1 correlation, replicate 1	KSR1 correlation, replicate 2	KSR1 correlation, replicate 3
5	MYCBPAP	SID364003790	0.881	2.78	0.855	0.862	0.874
6	FRAT2	SID363998033	0.168	1.38	0.141	-0.0904	0.0548
